Assay [1] addresses T1, Flag-B4GALT1 (beta-1,4-galactosyltransferase 1) (UniProt P15291).
T1 sequence: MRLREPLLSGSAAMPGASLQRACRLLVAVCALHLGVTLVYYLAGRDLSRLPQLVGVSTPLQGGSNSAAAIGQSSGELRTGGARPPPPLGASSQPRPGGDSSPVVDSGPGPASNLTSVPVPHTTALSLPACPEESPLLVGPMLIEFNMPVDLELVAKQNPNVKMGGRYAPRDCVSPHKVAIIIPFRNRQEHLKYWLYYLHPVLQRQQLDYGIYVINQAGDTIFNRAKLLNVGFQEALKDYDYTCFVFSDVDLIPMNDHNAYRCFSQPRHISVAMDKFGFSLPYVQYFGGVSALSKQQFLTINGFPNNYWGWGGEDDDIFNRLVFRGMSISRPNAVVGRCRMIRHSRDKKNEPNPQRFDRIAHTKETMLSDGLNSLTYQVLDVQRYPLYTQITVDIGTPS
In words: co-IP; HEK293T lysates (50 mM Tris-HCl pH 7.4, 150 mM NaCl, 1 mM EDTA, 1% TritonX-100) incubated with anti-Flag M2 Affinity Gel at 4 C overnight; washed (50 mM Tris-HCl pH 7.5, 150 mM NaCl, 0.5% TritonX-100, 10% glycerol); eluate analysed by western blot.

The chains behind the UniProt entries cited, without tags or fusion partners. Residues count along the entry.
UniProt Q9NZQ7, residues 19-290: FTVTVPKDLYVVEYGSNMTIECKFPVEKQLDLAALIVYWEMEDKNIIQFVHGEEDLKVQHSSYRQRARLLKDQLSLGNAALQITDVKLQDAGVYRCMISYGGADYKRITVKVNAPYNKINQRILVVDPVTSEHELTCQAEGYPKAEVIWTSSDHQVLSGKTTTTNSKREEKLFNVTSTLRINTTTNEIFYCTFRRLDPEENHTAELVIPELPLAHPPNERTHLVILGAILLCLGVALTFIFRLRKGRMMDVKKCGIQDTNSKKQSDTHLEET

The target in assay [2] is PD-L1-3×FLAG (programmed death ligand 1) (UniProt Q9NZQ7). The assay is described as above.
Assay [3] deals with PD-L1 (programmed death ligand 1), endogenous in TNBC cells (human (endogenous in HCC1937 and MDA-MB-231)) (UniProt Q9NZQ7). As to the kind of experiment: proximity ligation; PLA in situ in HCC1937 and MDA-MB-231 cells, endogenous proteins.

Results are given in words; binding and its absence hold for the method and conditions named. Binding seen in cells or lysates may run through a third protein. Some entries that bind do so weakly or less than the wild type. For part of these data: Sequences can lack the tags named with a protein.

Consider “PD-L1 (programmed death ligand 1), untagged, expressed from pCDH-PD-L1 (from UniProt Q9NZQ7 19-290)”, for which the binding result in assay [1] is “binds”.

B1: beta-1,4-galactosyltransferase 1 (B4GALT1), endogenous in HEK293T (enzyme, UniProt P15291 1-398)
chain: T1 sequence
In the case of B1, the binding entry in assay [2] is “binds”.

B2: beta-1,4-galactosyltransferase 1 (B4GALT1), endogenous in TNBC cells (enzyme, UniProt P15291 1-398)
chain: T1 sequence
In the case of B2, the binding result in assay [3] is “binds”.

For the origin of these results see article PMC9613699.
